Values from PubChem BioAssay AID1259254 (NCATS, 2017)
This is a random part of about 59,000 deposited reagents. In the full data, about 1,550 (2.6%) got an active call. 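G2 share is only a proxy for re-replication; each gene was hit by three separate siRNAs, and active genes were retested.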 Raw values vary from plate to plate and are shown uncorrected. The numbers tell different reagents against one gene apart. No sequences are given here. The record does not give: the amount of reagent.

- Test: 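Gene knock-downs that lead to re-replication, shown by excess G2 DNA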 (primary screen)
- Cell system: human HCT116 colorectal cancer cells
- Reagents: single siRNA against human genes
- Timing: 3 days
- Read-out: 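Imaged Hoechst DNA stain sorts each cell into a cycle phase by DNA amount; per plate, G2 fraction set to 0% for non-targeting and 100% for GMNN siRNA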
- Reading the numbers: G2 robust z-score and G2 cells, % of GMNN control: higher = more G2 cells, more excess DNA replication; raw share of cells in G2: higher = larger share of cells with G2 DNA content
- Rule for the call: 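An siRNA counts as active if its G2 robust z-score lies at least 5 MADs above the screen median; here such calls match roughly 38% of GMNN control or more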

target gene,siRNA no.,G2 robust z-score,"G2 cells, % of GMNN control",raw share of cells in G2 (%),Outcome
RAE1,1,-0.8,-2.66,3.75,inactive
RAE1,2,0.622,7.34,7.84,inactive
RAE1,3,1.17,11.2,9.62,inactive
SPDEF,1,-0.144,1.95,4.63,inactive
SPDEF,2,0.799,8.59,10.1,inactive
SPDEF,3,-0.901,-3.37,3.07,inactive
FLJ16734 (retired record),1,0.991,9.94,7.46,inactive
FLJ16734 (retired record),2,1.44,13.1,8.39,inactive
FLJ16734 (retired record),3,-0.137,2,3.8,inactive
ZCCHC10,1,0.209,4.44,5.19,inactive
ZCCHC10,2,0.572,6.99,7.22,inactive
ZCCHC10,3,0.00292,2.99,4.18,inactive
CABCOCO1,1,0.0499,3.32,4.78,inactive
CABCOCO1,2,-0.422,-0.00356,3.13,inactive
CABCOCO1,3,-0.379,0.299,3.29,inactive
IFT81,1,-0.892,-3.31,2.59,inactive
IFT81,2,1.59,14.1,9.89,inactive
IFT81,3,-0.156,1.87,3.84,inactive
MACF1,1,0.102,3.69,4.75,inactive
MACF1,2,0.33,5.29,8.34,inactive
MACF1,3,0.947,9.63,7.37,inactive
MACF1,4,-0.587,-1.17,3.19,inactive
MACF1,5,0.621,7.33,5.91,inactive
MACF1,6,1.08,10.5,6.22,inactive
SERINC1,1,1.39,12.8,10.9,inactive
SERINC1,2,2.87,23.1,12.6,inactive
SERINC1,3,-0.455,-0.237,4.26,inactive
HLA-DOA,1,-0.76,-2.38,4.19,inactive
HLA-DOA,2,-0.0993,2.27,4.92,inactive
HLA-DOA,3,-1.06,-4.47,1.77,inactive
ADGRD1,1,-0.951,-3.72,4.51,inactive
ADGRD1,2,1.51,13.6,9.27,inactive
ADGRD1,3,1.17,11.2,6.69,inactive
B4GALT4,1,2.5,20.5,12.1,inactive
B4GALT4,2,-1.32,-6.33,1.66,inactive
B4GALT4,3,-0.813,-2.75,4.3,inactive
MKX,1,-0.922,-3.52,4.28,inactive
MKX,2,-0.594,-1.21,4.26,inactive
MKX,3,0.537,6.74,7.53,inactive
PLEKHS1,1,0.848,8.93,4.82,inactive
PLEKHS1,2,1.1,10.7,8.9,inactive
PLEKHS1,3,0.509,6.55,7.17,inactive

Limited to “G2 cells, % of GMNN control” (6 entries from above):
SPDEF #3: -3.37
FLJ16734 (retired record) #1: 9.94
FLJ16734 (retired record) #2: 13.1
FLJ16734 (retired record) #3: 2
ZCCHC10 #1: 4.44
ZCCHC10 #2: 6.99

The listing continues.
target gene,siRNA no.,G2 robust z-score,"G2 cells, % of GMNN control",raw share of cells in G2 (%),Outcome
USP41P,1,2.14,18,10.4,inactive
USP41P,2,1.69,14.9,9.79,inactive
USP41P,3,-0.929,-3.57,4.09,inactive
IFNA10,1,-0.384,0.267,3.63,inactive
IFNA10,2,-0.162,1.83,6.16,inactive
IFNA10,3,2.71,22,12.2,inactive
SOX11,1,4.49,34.6,17.3,inactive
SOX11,2,-0.871,-3.16,3.46,inactive
SOX11,3,0.581,7.05,6.29,inactive
AFG1L,1,-0.585,-1.15,5.41,inactive
AFG1L,2,4.14,32.1,16.4,inactive
AFG1L,3,1.63,14.5,10.8,inactive
NOS2,1,0.725,8.07,8.67,inactive
NOS2,2,-1.01,-4.13,1.83,inactive
NOS2,3,-0.166,1.8,6.06,inactive
PNRC1,1,1.99,17,11.6,inactive
PNRC1,2,-0.53,-0.764,3.82,inactive
PNRC1,3,-0.592,-1.2,2.73,inactive
YME1L1,1,2.19,18.3,12,inactive
YME1L1,2,-0.361,0.426,5.06,inactive
YME1L1,3,-0.686,-1.86,3.22,inactive
PCCB,1,4,31.1,17,inactive
PCCB,2,-0.742,-2.25,3.84,inactive
PCCB,3,-0.549,-0.895,2.89,inactive
CCT6A,1,5.85,44.1,21,active
CCT6A,2,0.00413,3,6.25,inactive
CCT6A,3,4.36,33.6,15.3,inactive
